# Results from PubChem BioAssay AID624297 (National Center for Advancing Translational Sciences (NCATS), 2012).
# Screen size: about 340,000 compounds; about 6,200 (1.8%) were called active. The inconclusive results got no clear call from the source; some entries with a clear call stand among them for comparison. The call rests on the fitted dose curve; in most records, active means well fitted activation curve with a large enough effect; inconclusive means small, poorly fitted or top-dose-only effect; inactive means no such curve, though single readings can be large or run the other way. A potency beside an inconclusive call is a rough fit, not a confirmed value.
# Test: A quantitative high throughput screen for small molecules that induce DNA re-replication in SW480 colon adenocarcinoma cells. Further: nearly all actives have a fitted effect of over 55% in size. On re-replication activation: % of control where 0% means no effect.
# Conditions: Hoechst DNA content imaging, 48 h; re-replication activation: at 46.1 µM (top of the series) unless noted
# Outline: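 Readout is total intensity of Hoechst-stained nuclei, excited at 405 nm and collected at 500-530 nm. Compound treatment lasted 48 hr at 37 C in 5% CO2 before staining.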
# Potency means the concentration at half of the fitted maximal effect.
Structure (SMILES),re-replication activation,Potency
Cc1ccc(C(=O)NC(C)c2ccc(F)cc2)cc1 (stereo not drawn),inactive: -8.34%,
Cc1ccnc(N/C=C(\C#N)c2nc(-c3cccc(Br)c3)cs2)c1,,"inconclusive: 20.6 µM [activator, single point]"
CCC(C)(C)n1nnnc1C(c1ccc2ncccc2c1)N1CCN(Cc2ccc3c(c2)OCO3)CC1 (stereo not drawn),,"inconclusive: 29.1 µM [activator, single point]"
COc1ccc2c(c1)CCc1c(C(=O)N3CCCc4ccccc43)noc1-2,inactive: 11.6%,
O=C(N/N=C/c1ccccc1F)NC12CC3CC(CC(C3)C1)C2,,"inconclusive: 29.1 µM [activator, single point]"
Cc1ccc(C)c(NC(NC(=O)c2ccccn2)C(Cl)(Cl)Cl)c1 (stereo not drawn),,"inconclusive: 29.1 µM [activator, single point]"
COC(=O)c1ccccc1NC(=O)N1CCCC1,inactive: 0.55%,
CCOC(=O)C1CCCN(CC(O)COc2ccc(OC)cc2C(C)(C)C)C1 (stereo not drawn),inactive: -0.951%,
Cc1cc(C(=O)N2CCN(c3ccccn3)CC2)c(C)o1,,"inconclusive: 35.5 µM [activator, partial curve, poor fit]"
Cc1ccc(-n2c(C)c3c(C)nnc(C)c3c2C)cc1C,,"inconclusive: 0.082 µM [activator, full curve, poor fit]"
CC(C)(C)c1ccc(N2C(=N)SCC2=O)cc1,,"inconclusive: 4.11 µM [activator, partial curve, poor fit]"
CCC1=Nc2cc(C(=O)NCc3ccco3)ccc2Sc2ccc(C)cc21,,active: 1.03 µM
COCc1cc(C)nc(SCc2nc3ccccc3c(=O)[nH]2)c1C#N,,"inconclusive: 3.26 µM [activator, single point]"
COc1ccccc1/C=C/C(=O)NCC(=O)N/N=C/c1cc(Br)ccc1OC,inactive: 13.8%,
CCN(CC)C(=O)CSc1ncnc2c1cnn2Cc1ccccc1,inactive: 3.9%,
CCN(CC)CCC(=O)N1c2ccccc2CCc2ccc(NC(=O)OC(C)C)cc21,,"inconclusive: 4.61 µM [activator, single point]"
C[C@H]1CN(S(=O)(=O)C(C)(C)C)[C@H](CCO)/C1=C\c1ccccc1,,"inconclusive: 0.0164 µM [activator, full curve, poor fit]"
Cc1cccc2c3nc4ccccc4nc3n(CCCN3C(=O)c4ccccc4C3=O)c12,,"inconclusive: 16.4 µM [activator, partial curve, poor fit]"
O=C(NN1C(=O)c2ccccc2NC1c1ccccc1OCc1ccccc1)c1ccncc1 (stereo not drawn),inactive: -1.16%,
Cn1cccc1/C=C1\SC(=S)N(NC(=O)c2ccc(F)cc2)C1=O,inactive: 3.99%,
CC1CCC(NC(=O)CN2C(=O)NC3(CCCCC3C)C2=O)CC1 (stereo not drawn),inactive: -2.67%,
Cc1nc2c3cc(F)ccc3n(Cc3ccccc3)c2s1,,"inconclusive: 16.4 µM [activator, single point]"
Cc1ccc(C(=O)c2oc3nc(C)cc(C)c3c2N)cc1,,"inconclusive: 16.4 µM [activator, partial curve]"

Structure (SMILES),re-replication activation,Potency
C[C@H](C[C@H](O)[C@H]1OC1(C)C)C1=C2C[C@H](O)C3[C@@]4(C)CCC(=O)C(C)(C)C4CC[C@]3(C)[C@@]2(C)CC1 (stereo partly drawn),,"inconclusive: 20.6 µM [activator, single point]"
Cc1ccc(N(Cc2ccccc2)C(=O)c2cccc(S(=O)(=O)N3CCN(C)CC3)c2)cc1,inactive: 2.52%,
CCC1CCCCN1CCCNC(=O)CC1Oc2ccccc2NC1=O (stereo not drawn),,"inconclusive: 0.146 µM [activator, full curve, poor fit]"
CCOC(=O)C1=NNC(C(=O)c2ccc(C)cc2)C1c1ccc(OC)cc1 (stereo not drawn),inactive: 0.213%,
O=C(Cc1ccccc1)NC(=S)Nc1ccc2oc(-c3ccccc3F)nc2c1,,"inconclusive: 29.1 µM [activator, partial curve, poor fit]"
c1ccc(C2OC3c4cccc5cccc(c45)C3N2c2ccccc2)cc1 (stereo not drawn),,"inconclusive: 29.1 µM [activator, single point]"
C[C@@H](NCCCn1ccc(NC(=O)OCc2ccccc2)nc1=O)c1cccc2ccccc12,,"inconclusive: 23.1 µM [activator, partial curve, poor fit]"
Cc1ccc(C)c(-c2nnc(NC(=O)c3ccc([N+](=O)[O-])o3)o2)c1,,"inconclusive: 9.2 µM [activator, partial curve, poor fit]"
CC(Nc1ccccc1CO)C(=O)Nc1cccc(Cl)c1Cl (stereo not drawn),,"inconclusive: 11.6 µM [activator, partial curve, poor fit]"
O=C(N/N=C/c1ccc([N+](=O)[O-])o1)c1cc2c(ccc3ccccc32)o1,,"inconclusive: 3.26 µM [activator, partial curve, poor fit]"
COc1cc(NC(=O)SC2=NCCS2)cc(OC)c1,inactive: -10.9%,
Cn1cc(CN2CCC(n3nccc3NC(=O)c3ccccc3Cl)CC2)c2ccccc21,,"inconclusive: 20.6 µM [activator, single point]"
Cc1ccc2cc(C#N)c(NCc3ccccc3)nc2c1,,"inconclusive: 20.6 µM [activator, single point]"
COc1ccc(C(=O)OCC(=O)NC2CC2)cc1S(=O)(=O)N(C)Cc1ccccc1,inactive: -8.3%,
COC(=O)C1=C(C(=O)OC)SC2(S1)C(C(=O)OC)=C(C(=O)OC)SC1=C2c2cccc(C)c2NC1(C)C,,"inconclusive: 18.4 µM [activator, single point]"
Cc1ccc(-c2nc3[nH]c(=O)cc(NC(=O)c4cccs4)n3n2)cc1,,"inconclusive: 20.6 µM [activator, partial curve, poor fit]"
Clc1nc(-c2ccccn2)nc2scc(-c3ccccc3)c12,,"inconclusive: 29.1 µM [activator, single point]"
CC(C)(C)OC(=O)CNC(=O)c1[nH]cnc1C(=O)NC(c1ccccc1)c1ccccc1,,"inconclusive: 14.6 µM [activator, single point]"
O=[N+]([O-])c1ccc(/C=N/Nc2nc(N3CCCCCC3)nc(N3CCCCCC3)n2)o1,,"inconclusive: 29.1 µM [activator, single point]"
CCc1ccc(C2=CC(c3cc(Br)ccc3F)n3ncnc3N2)cc1 (stereo not drawn),,"inconclusive: 3.26 µM [activator, partial curve, poor fit]"
Cc1ccc(S(=O)(=O)NCCCCCC(=O)Nc2ccccc2C)cc1,,"inconclusive: 29.1 µM [activator, single point]"
c1ccc(-c2ccccc2-c2nc(-c3ccncc3)no2)cc1,inactive: -21.4%,
O=c1c2ccccc2nc(SCCN2CCCCC2)n1CCc1ccccc1,,"inconclusive: 29.1 µM [activator, single point]"

Structure (SMILES),re-replication activation,Potency
CCC1(C)NC(=O)N(CC(=O)Nc2sc3c(c2C(=O)OC)CCCCC3)C1=O (stereo not drawn),,"inconclusive: 16.4 µM [activator, single point]"
CN(C(=O)c1ccc(NC(=O)Cc2ccc(NC(=O)C3CCCN(C(=O)c4ccccc4)C3)cc2)cc1)C1CCCC1 (stereo not drawn),,"inconclusive: 1.16 µM [activator, single point]"
COc1ccc(OCC(=O)OCC(=O)N2CC(=O)Nc3ccccc32)cc1,,"inconclusive: 29.1 µM [activator, single point]"
O=S(=O)(c1ccccc1)c1nc(-c2ccco2)oc1N1CCCCCC1,,"inconclusive: 29.1 µM [activator, single point]"
COc1ccc(NC(=O)c2nc[nH]c2C(=O)N2CCN(C(=O)OC(C)(C)C)CC2)cc1,,"inconclusive: 6.51 µM [activator, single point]"
CCCCCn1c(=NC(C)=O)c(C#N)cc2c(=O)n3ccccc3nc21,,"inconclusive: 20.6 µM [activator, single point]"
O=C(Nc1nc(-c2ccccc2)cs1)C1CCCO1 (stereo not drawn),,"inconclusive: 29.1 µM [activator, single point]"
Cc1nn(Cc2ccc(Cl)cc2)c(C)c1NC(=O)c1c(-c2ccccc2)noc1C,inactive: 17.7%,
COc1ccc(-n2nc(C(=O)N3CCC(N4CCCCC4)CC3)c3c4ccccc4n(C)c3c2=O)cc1,inactive: -6.99%,
COc1ccc(OCc2nnc(SCC(=O)Nc3cccc(C(C)=O)c3)o2)cc1,,"inconclusive: 29.1 µM [activator, partial curve, poor fit]"
COC(=O)c1cc(C(=O)N2CCOCC2)cc([N+](=O)[O-])c1,inactive: -8.23%,
C/C(=N/NC(=O)c1ccccc1O)c1ccc(N2C(=O)C3CCCCC3C2=O)cc1 (stereo not drawn),inactive: -3.76%,
COc1cccc(C2CC(c3ccccc3)Nc3ncnn32)c1 (stereo not drawn),inactive: 3.9%,
Clc1cccc(Cl)c1C[n+]1cccc2ccccc21,,"inconclusive: 16.4 µM [activator, partial curve, poor fit]"
CCCn1nnnc1NC(=O)c1ccc(C)cc1Cl,inactive: -2.44%,
CC(=O)Oc1ccc2ccc3ccc(C(C)=O)cc3c2c1,,"inconclusive: 29.1 µM [activator, single point]"
O=S(=O)(NCc1ccccc1)c1cccs1,,"inconclusive: 0.058 µM [activator, full curve, poor fit]"
COc1cc(O)c(C(CCN2CCN(c3ccccc3)CC2)c2ccc3c(c2)OCO3)c(OC)c1 (stereo not drawn),inactive: -21.5% [at 9.22 µM],
Cc1nnnn1/C(=C\c1ccccc1)C(=O)OCC(=O)NC(C)(C)C,,"inconclusive: 23.1 µM [activator, single point]"
CN1CCN(C(=O)/C(=C/c2ccc(F)cc2)c2ccsc2)CC1,inactive: 4.17%,
CCN(Cc1ccncc1)C(=O)C1CCN(S(=O)(=O)c2cccs2)CC1,,"inconclusive: 5.17 µM [activator, single point]"
COc1ccccc1OCCSc1nnc(CNC(=O)c2ccco2)n1C,inactive: -11.3%,

# Structures shown so far that have bromine, in the order listed:
Structure (SMILES),re-replication activation,Potency
Cc1ccnc(N/C=C(\C#N)c2nc(-c3cccc(Br)c3)cs2)c1,,"inconclusive: 20.6 µM [activator, single point]"
COc1ccccc1/C=C/C(=O)NCC(=O)N/N=C/c1cc(Br)ccc1OC,inactive: 13.8%,
CCc1ccc(C2=CC(c3cc(Br)ccc3F)n3ncnc3N2)cc1 (stereo not drawn),,"inconclusive: 3.26 µM [activator, partial curve, poor fit]"
